Test results: PubChem BioAssay AID1919000 (Molecular Pharmacology Branch, DTP, NCI, 2023)
Values joined by “and” are separate entries in the source; they are usually repeats but may differ in a detail not shown here. Equal entries are not always repeated. Further values from the same series stand in other lists.

Tested on: 653999-131-R-J2-PDC complex spheroids, growth % test/control
Experiment: Anticancer human tumor 653999-131-R-J2-PDC patient-derived lung adenocarcinoma cell line growth inhibition [AhR]
Conditions: active compounds read low; active means viability on the fitted dose curve at most 10% of control; inactive means the rest
Description: Multicellular complex tumor spheroid response to aryl hydrocarbon receptor antagonists in combination with a variety of drugs and investigational agents in selected tumor cell lines
The current study was undertaken to assess response to aryl hydrocarbon receptor antagonists in combination with standard-of-care drugs and investigational agents in solid tumor complex spheroid models. Complex spheroids include a stromal component modeled by human endothelial cells (HUVEC) and fibroblasts modeled by human mesenchymal stem cells (MSCs). The concentration ranges selected for each drug and investigational agent were based upon clinically achievable concentrations if the clinical Cmax of the agent was known.
Compounds. The drugs and investigational agents: BAY 2416964 (NSC825713), GNF351 (NSC835774), CH-223191 (NSC835775), CPI-455 (NSC825282), aza-TdCyd (NSC777586), decitabine (NSC127716), belinostat (NSC758774), entinostat (NSC756642), pevonedistat (NSC761192), tazemetostat (NSC777109), talazoparib (NSC765396), olaparib (NSC753686), selinexor (NSC780203), nedisertib (M3814, NSC802822), bortezomib (NSC756655), venetoclax (NSC766270), doxorubicin (NSC123127), elimusertib (BAY189344, NSC800525), ceralasertib (AZD6738, NSC777638), TAK-243 (NSC785004), alisertib (NSC759677), etoposide (NSC141540), topotecan (NSC609699), eribulin (NSC707389), gemcitabine (NSC613327), carboplatin (NSC241240), cisplatin (NSC119875), and SN-38 (NSC673596) were obtained from the National Cancer Institute (NCI) Developmental Therapeutics Program Chemical Repository (32). The FDA-approved anticancer drug set is available from the Developmental Therapeutics Program at https://dtp.cancer.gov/organization/dscb/obtaining/available plates.htm. […] The stock solutions were prepared in dimethyl sulfoxide (DMSO, Sigma-Aldrich, St. Louis, MO, cat. D2650), except for the platinum compounds which were prepared in saline (Quality Biological, Gaithersburg, MD, cat. 114-055-101), at 800-fold the tested concentration and stored at -70 degrees C prior to their use. All drugs and investigational agents were tested over a range starting from a high concentration at or near the clinical Cmax and decreasing in half-log increments. If the clinical Cmax for an agent had not been determined, the highest concentration tested was 10 microM (Table 1).
Cell Culture. All cells were maintained in an incubator at 37 degrees C and 5% CO2 with 95% humidity. The PDC lines were cultured according to standard operating procedures established by the NCI PDMR (https://pdmr.cancer.gov). Briefly, all PDCs were thawed and cultured in Matrigel-coated flasks prepared with a working solution of 1X Ham's F-12 nutrient mix, without supplementation (Invitrogen, Waltham, MA, cat. 11765054), 100 U/mL penicillin-streptomycin (Invitrogen, cat. 15140122), and 2.5% Matrigel (Corning Inc., Corning, NY, cat. 354248) for the first three passages. All PDCs were cultured in complete DMEM/F-12 media containing advanced DMEM/F-12 (Invitrogen, cat. 12634028), 4.9% defined fetal bovine serum, heat inactivated (HyClone Laboratories Inc., Logan, UT, cat. SH30070.03HI), 389 ng/mL hydrocortisone (Sigma-Aldrich, cat. H4001), 9.7 ng/mL human EGF recombinant protein (Invitrogen, cat. PHG0313), 23.4 microg/mL adenine (Sigma-Aldrich, cat. A2786), 97.3 U/mL penicillin-streptomycin (Invitrogen, cat. 15140122), 1.9 mM L-glutamine (Invitrogen, cat. 25030081), and 9.7 microM Y-27632 dihydrochloride (Tocris Bioscience, Bristol, United Kingdom, cat. 1254). The PDCs were cultured in complete DMEM/F12 media without 10 microM Y-27632 dihydrochloride for at least two passages prior to the screen. The established cell lines NCI-H1341 and […] were cultured in DMEM/F-12, HEPES (Invitrogen, cat. 11330032), 5% defined fetal bovine serum (HyClone Laboratories Inc., cat. SH30070.03), ITS premix universal culture supplement [insulin (5 microg/mL), transferrin (5 microg/mL), and selenious acid (5 ng/mL)] […]

Measured: viability, T/C
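Further: spheroids exposed to agents for seven days.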

Cc1cncc(-c2nc(NCCc3c[nH]c4ccccc34)c3ncn(C(C)C)c3n2)c1
inactive: compound 0.1 µM 96.8% [middle of 4 runs] | compound 0.316 µM 109% [middle of 4 runs] | compound 1 µM 113% [middle of 4 runs] | compound 3.16 µM 98.6% and 129% and 98.5% | compound 10 µM 41.7% and 57.6% and 51.4%

Cc1ccccc1N=Nc1ccc(NC(=O)c2ccnn2C)c(C)c1
inactive: compound 0.1 µM 106% [middle of 4 runs] | compound 1 µM 86.6% and 98.6% and 91.2% | compound 3.16 µM 96% [middle of 4 runs] | compound 10 µM 106% [middle of 4 runs]

CC(CO)NC(=O)c1cc(-c2ccc(Cl)cc2)nn(-c2cnn(C)c2)c1=O (centres undefined)
inactive: compound 0.1 µM 90.3% and 85.5% and 93.7% | compound 0.316 µM 94.4% [middle of 4 runs] | compound 1 µM 97.1% [middle of 4 runs] | compound 3.16 µM 89.4% [middle of 5 runs] | compound 10 µM 90.6% [middle of 5 runs]
